Laboratory results: PubChem BioAssay AID652272 (Drosophila RNAi Screening Center, 2013)

- Test: 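Genome-wide knock-down search for components of Hedgehog signalling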 (primary screen)
- System: Drosophila clone 8 (Cl8) cells
- Reagents: long dsRNA against Drosophila genes
- Measurement: 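Plate reader light from a firefly reporter under a ptc promoter fragment that responds to Hedgehog, with Renilla light as transfection reference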
- Reading the numbers: firefly Hh reporter signal: higher = more ptc reporter light; Renilla reference signal: higher = more Renilla control light
- Hit rule: 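Hit when the z-score averaged over two replicates is under -2 or over +3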
- Calls: active = hit: reporter lowered or raised; inactive = not a hit
The deposit covers about 21,000 reagents; below is an unselected part of those that have a named target and a result. In the full data, 503 (2.4%) were called active. 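Raw plate light values, not normalised; calls rest on replicate z-scores that were not deposited; hits include reporter decreases as well as increases.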 The numbers tell different reagents against one gene apart. A plus sign joins genes that one reagent is predicted to hit. Reagent sequences are not shown. Not stated in the record: the amount of reagent, the time to read-out.

gene knocked down,reagent no.,"firefly Hh reporter signal, replicate 1","firefly Hh reporter signal, replicate 2","firefly Hh reporter signal, replicate 3","Renilla reference signal, replicate 1","Renilla reference signal, replicate 2",call
CG6472 (GeneID 36895),1,72972,34605,,2048,3104,inactive
NAAT1 (GeneID 31457),1,54588,1.67e5,,1821,7303,inactive
Ets98B (GeneID 43334),1,1.29e5,1.67e5,,3569,5737,inactive
CG7142 (GeneID 42194),1,5.99e5,86632,,29461,2181,inactive
AhcyL1 (GeneID 38342),1,78101,34773,,2227,3050,inactive
CG14759 (GeneID 35803),1,97264,50688,,2413,5347,inactive
CG43318 (GeneID 12798422),1,62109,83112,,1698,2228,inactive
CG34447 (GeneID 5740813),1,99912,90624,,2860,2450,inactive
Trhn (GeneID 38121),1,1.52e5,1.15e5,,6741,5008,inactive
rols (GeneID 39368),1,47696,42646,51239,4374,3380,inactive
rols (GeneID 39368),2,17744,50332,44672,4336,3031,inactive
rols (GeneID 39368),3,42257,40851,48858,3777,3465,inactive
CG9701 (GeneID 39872),1,94122,66233,,4339,2713,inactive
wek (GeneID 48785),1,77888,43772,,3483,2045,inactive
CG7509 (GeneID 38579),1,1.17e5,54144,,4148,2155,inactive
ND-B17 (GeneID 34925),1,1.12e5,63937,,3141,5944,inactive
CG17207 (GeneID 2768665),1,71801,1.31e5,,2325,6867,inactive
aurB (GeneID 34504),1,34820,29051,,2251,1844,inactive
CG9147 (GeneID 33855),1,95010,55232,,2653,5185,inactive
Tbca (GeneID 43737),1,69056,56992,,1701,1943,inactive
CG31204 (GeneID 318625),1,84604,1.70e5,,1314,6925,inactive
Tsp68C (GeneID 117407),1,2.12e5,,,3234,,inactive
CG14573 (GeneID 40419),1,1.16e5,1.00e5,,4036,5417,inactive
CG5539 (GeneID 37766),1,67666,51084,,1888,4464,inactive
dimm (GeneID 35404),1,1.04e5,54502,,2486,5116,inactive
CG13063 (GeneID 39797),1,1.95e5,,,2327,5480,inactive
CG14424 (GeneID 31279),1,94811,2.21e5,,3667,7643,inactive
Exo84 (GeneID 43163),1,4.49e5,77061,,23682,2640,inactive
CG8630 (GeneID 41629),1,67691,58321,,2778,1712,inactive
jar (GeneID 42889),1,4.59e5,1.03e5,,24626,3085,inactive
Sf3a2 (GeneID 39456),1,78616,82012,,3816,3715,inactive
CG2924 (GeneID 31214),1,1.19e5,1.26e5,,3037,3456,inactive
CG2200 (GeneID 32258),1,77744,1.56e5,,1833,6242,inactive
l(3)73Ah (GeneID 48903),1,66704,,,4682,2019,inactive
CG9837 (GeneID 41057),1,93589,1.23e5,,4114,3280,inactive
ND-20L (GeneID 43477),1,1.78e5,1.24e5,,6586,4101,inactive
Zwilch (GeneID 59247),1,1.01e5,1.22e5,,3672,3564,inactive
CG42827 (GeneID 42763),1,5.70e5,4.82e5,96724,29062,2528,inactive
CG12204 (GeneID 32937),1,1.07e5,1.05e5,,1736,2457,inactive
CenG1A (GeneID 34803),1,1.11e5,52552,,3337,5874,inactive
CenG1A (GeneID 34803),2,1.64e5,68467,,4348,6299,inactive
CenG1A (GeneID 34803),3,1.02e5,51397,,2949,4966,inactive
Mal-A5 (GeneID 35828),1,82363,59177,,3504,2219,inactive
CG9609 (GeneID 32663),1,1.25e5,1.15e5,,2604,2715,inactive
Cpr35B (GeneID 34846),1,2.10e5,8.71e5,76874,5037,46410,inactive
CG11356 (GeneID 32178),1,67512,2.26e5,,1690,9264,inactive
CG13578 (GeneID 37891),1,79264,40385,,2176,4297,inactive
CG5623 (GeneID 41904),1,1.45e5,1.17e5,,5189,3340,inactive
scpr-A + scpr-C,1,79207,98967,,3184,2877,inactive
CheB38c (GeneID 35346),1,79578,60928,,2262,5520,inactive
CG13639 (GeneID 12798257),1,6.53e5,1.17e5,,32551,3446,inactive
scrt (GeneID 38469),1,42658,16657,,1543,1629,inactive
CG10700 (GeneID 35183),1,73668,48856,,1804,3985,inactive
CG6739 (GeneID 34037),1,1.25e5,44272,,2925,3764,inactive
TpnC47D (GeneID 36195),1,1.22e5,56752,,3371,4833,inactive
CG14864 (GeneID 41846),1,68288,93698,,2224,2432,inactive
CG3328 (GeneID 37871),1,96732,54032,,4257,2432,inactive
Roc1a (GeneID 31014),1,83904,2.35e5,,2407,6340,inactive
CG32572 (GeneID 32657),1,76900,1.83e5,,2070,8070,inactive
CG32572 (GeneID 32657),2,63324,1.74e5,,1241,7932,inactive
CG7655 (GeneID 42128),1,1.62e5,65162,,7275,2729,inactive
CG9467 (GeneID 41207),1,1.25e5,72341,,4678,2403,inactive
Acat2 (GeneID 38147),1,1.22e5,65651,,4304,5670,inactive
kto (GeneID 44830),1,72019,61136,,3098,2705,inactive
stops (GeneID 43683),1,77659,85542,,2929,2389,inactive
stops (GeneID 43683),2,1.17e5,1.11e5,,4053,3024,inactive
stops (GeneID 43683),3,1.29e5,1.04e5,,4506,3308,inactive
CG7943 (GeneID 43574),1,81875,83403,,2304,2437,inactive
tsl (GeneID 42564),1,9.72e5,1.58e5,,45403,2869,inactive
bou (GeneID 31644),1,78000,2.06e5,,2813,7033,inactive
CG12535 (GeneID 31311),1,76497,2.27e5,,2041,9381,inactive
Mob2 (GeneID 39293),1,39472,1.26e5,,1797,6416,active
Mob2 (GeneID 39293),2,1.09e5,2.47e5,,3213,10037,inactive
Mob2 (GeneID 39293),3,1.03e5,67381,,4513,2952,inactive

In a second layout: entries from further up.
CG3328 (GeneID 37871) — firefly Hh reporter signal, replicate 1: 96732; firefly Hh reporter signal, replicate 2: 54032; Renilla reference signal, replicate 1: 4257; Renilla reference signal, replicate 2: 2432; call: inactive
Roc1a (GeneID 31014) — firefly Hh reporter signal, replicate 1: 83904; firefly Hh reporter signal, replicate 2: 2.35e5; Renilla reference signal, replicate 1: 2407; Renilla reference signal, replicate 2: 6340; call: inactive
CG32572 (GeneID 32657) #1 — firefly Hh reporter signal, replicate 1: 76900; firefly Hh reporter signal, replicate 2: 1.83e5; Renilla reference signal, replicate 1: 2070; Renilla reference signal, replicate 2: 8070; call: inactive
CG32572 (GeneID 32657) #2 — firefly Hh reporter signal, replicate 1: 63324; firefly Hh reporter signal, replicate 2: 1.74e5; Renilla reference signal, replicate 1: 1241; Renilla reference signal, replicate 2: 7932; call: inactive
